Measured values reported in the supplement of paper PMC10849652.
This is one part of the list.

The chains behind the UniProt entries cited, without tags or fusion partners. Where a name states a change or a piece, a line headed by the entry shows the natural chain unless it says otherwise.
UniProt Q96G28: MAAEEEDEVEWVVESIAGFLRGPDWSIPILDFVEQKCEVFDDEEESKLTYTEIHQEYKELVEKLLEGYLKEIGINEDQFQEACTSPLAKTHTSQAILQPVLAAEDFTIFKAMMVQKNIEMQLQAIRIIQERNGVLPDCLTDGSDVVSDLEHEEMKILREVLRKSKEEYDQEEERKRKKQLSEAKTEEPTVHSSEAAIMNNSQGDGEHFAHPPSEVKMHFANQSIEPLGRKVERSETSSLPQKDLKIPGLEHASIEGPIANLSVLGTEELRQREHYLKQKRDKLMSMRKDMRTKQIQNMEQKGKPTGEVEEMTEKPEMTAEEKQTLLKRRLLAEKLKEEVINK
UniProt Q7L3B6: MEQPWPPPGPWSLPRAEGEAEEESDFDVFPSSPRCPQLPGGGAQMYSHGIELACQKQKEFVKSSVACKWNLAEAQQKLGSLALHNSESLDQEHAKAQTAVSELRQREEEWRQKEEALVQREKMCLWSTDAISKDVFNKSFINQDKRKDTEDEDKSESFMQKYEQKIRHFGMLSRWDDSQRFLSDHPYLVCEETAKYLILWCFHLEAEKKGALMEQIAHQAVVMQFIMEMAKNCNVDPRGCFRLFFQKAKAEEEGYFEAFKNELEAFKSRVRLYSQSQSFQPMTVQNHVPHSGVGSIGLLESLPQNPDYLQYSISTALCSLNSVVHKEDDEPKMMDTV
UniProt O14519: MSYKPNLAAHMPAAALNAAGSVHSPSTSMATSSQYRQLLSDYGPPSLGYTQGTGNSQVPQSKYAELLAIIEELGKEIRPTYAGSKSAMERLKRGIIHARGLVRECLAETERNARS
UniProt O43822: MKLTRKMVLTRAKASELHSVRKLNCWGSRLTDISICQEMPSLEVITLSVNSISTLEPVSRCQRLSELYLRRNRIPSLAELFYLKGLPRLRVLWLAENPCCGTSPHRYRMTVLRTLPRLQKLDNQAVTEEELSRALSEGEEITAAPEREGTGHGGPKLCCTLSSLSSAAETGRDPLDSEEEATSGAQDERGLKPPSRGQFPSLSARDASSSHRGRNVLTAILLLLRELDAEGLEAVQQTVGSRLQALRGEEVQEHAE
UniProt O15182: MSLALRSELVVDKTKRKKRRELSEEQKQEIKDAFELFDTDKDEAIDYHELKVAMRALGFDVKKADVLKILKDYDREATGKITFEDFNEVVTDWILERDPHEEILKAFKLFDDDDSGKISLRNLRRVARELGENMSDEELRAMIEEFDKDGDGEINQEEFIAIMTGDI
UniProt Q13042, whole entry, looked up: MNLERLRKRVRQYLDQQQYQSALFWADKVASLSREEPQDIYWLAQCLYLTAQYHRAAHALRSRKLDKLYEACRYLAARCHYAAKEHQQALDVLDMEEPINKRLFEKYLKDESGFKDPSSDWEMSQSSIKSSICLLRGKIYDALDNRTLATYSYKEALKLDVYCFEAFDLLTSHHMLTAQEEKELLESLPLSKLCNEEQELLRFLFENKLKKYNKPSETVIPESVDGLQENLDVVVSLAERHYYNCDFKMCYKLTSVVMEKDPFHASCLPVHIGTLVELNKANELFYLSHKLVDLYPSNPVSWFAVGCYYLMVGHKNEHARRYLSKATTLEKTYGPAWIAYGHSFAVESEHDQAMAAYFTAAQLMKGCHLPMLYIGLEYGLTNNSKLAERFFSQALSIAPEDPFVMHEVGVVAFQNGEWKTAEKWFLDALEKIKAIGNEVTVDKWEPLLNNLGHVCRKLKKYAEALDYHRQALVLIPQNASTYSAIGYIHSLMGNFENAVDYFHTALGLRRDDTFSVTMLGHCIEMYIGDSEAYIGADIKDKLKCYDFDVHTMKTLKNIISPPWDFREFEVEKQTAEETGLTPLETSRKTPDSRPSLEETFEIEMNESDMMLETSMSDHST
UniProt Q8IWY9: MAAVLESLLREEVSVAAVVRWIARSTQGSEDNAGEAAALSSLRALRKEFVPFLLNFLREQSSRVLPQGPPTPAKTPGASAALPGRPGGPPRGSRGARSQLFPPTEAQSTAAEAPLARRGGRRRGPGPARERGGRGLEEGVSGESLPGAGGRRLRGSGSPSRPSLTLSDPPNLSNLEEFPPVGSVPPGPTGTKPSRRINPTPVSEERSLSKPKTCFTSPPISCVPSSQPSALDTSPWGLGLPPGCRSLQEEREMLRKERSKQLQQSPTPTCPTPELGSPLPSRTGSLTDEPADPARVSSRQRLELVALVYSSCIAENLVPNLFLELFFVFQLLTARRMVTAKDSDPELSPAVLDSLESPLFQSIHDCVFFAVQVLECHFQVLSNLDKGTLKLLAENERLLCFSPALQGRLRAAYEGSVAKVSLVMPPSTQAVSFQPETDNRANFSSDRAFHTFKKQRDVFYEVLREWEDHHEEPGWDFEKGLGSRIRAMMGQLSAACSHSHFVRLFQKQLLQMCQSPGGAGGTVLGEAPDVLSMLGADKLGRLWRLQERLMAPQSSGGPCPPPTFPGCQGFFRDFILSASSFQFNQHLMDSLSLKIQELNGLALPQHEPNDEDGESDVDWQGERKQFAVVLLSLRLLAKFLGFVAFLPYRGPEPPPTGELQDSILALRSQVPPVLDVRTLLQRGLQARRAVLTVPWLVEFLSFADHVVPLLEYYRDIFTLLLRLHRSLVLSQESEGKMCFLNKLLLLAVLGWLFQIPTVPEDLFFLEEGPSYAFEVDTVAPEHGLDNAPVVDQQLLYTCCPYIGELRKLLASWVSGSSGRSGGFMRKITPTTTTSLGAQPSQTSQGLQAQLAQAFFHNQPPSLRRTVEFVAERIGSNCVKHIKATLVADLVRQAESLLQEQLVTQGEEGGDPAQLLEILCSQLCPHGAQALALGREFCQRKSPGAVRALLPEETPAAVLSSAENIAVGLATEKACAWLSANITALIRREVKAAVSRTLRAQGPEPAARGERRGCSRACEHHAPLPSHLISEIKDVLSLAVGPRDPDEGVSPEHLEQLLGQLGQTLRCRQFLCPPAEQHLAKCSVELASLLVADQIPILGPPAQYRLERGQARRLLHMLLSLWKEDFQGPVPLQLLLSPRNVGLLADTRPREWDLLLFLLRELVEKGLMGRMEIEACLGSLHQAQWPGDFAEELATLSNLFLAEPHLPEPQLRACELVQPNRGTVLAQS
UniProt Q8IW35: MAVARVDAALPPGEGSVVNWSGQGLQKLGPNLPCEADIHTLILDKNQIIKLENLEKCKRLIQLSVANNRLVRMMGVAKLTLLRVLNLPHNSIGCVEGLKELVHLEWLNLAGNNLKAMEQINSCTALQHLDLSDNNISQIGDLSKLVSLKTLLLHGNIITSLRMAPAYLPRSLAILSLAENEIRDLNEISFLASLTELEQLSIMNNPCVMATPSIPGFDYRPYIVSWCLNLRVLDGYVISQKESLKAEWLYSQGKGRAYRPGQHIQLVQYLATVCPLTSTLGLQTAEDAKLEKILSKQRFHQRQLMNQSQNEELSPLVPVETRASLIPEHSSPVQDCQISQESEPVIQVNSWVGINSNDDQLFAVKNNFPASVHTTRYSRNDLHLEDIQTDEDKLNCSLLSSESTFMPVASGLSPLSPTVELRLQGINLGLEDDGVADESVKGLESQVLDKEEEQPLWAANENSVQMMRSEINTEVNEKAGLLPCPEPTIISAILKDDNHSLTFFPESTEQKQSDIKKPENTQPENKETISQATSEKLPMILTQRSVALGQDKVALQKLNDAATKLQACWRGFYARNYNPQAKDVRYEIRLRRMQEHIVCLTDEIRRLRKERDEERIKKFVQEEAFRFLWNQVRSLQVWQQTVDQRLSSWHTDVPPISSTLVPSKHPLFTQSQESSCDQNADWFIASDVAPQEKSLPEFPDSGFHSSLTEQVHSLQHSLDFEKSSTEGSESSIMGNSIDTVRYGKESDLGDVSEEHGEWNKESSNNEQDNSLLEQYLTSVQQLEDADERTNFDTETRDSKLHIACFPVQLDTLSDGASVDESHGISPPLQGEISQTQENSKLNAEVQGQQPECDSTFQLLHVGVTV
UniProt Q96G23: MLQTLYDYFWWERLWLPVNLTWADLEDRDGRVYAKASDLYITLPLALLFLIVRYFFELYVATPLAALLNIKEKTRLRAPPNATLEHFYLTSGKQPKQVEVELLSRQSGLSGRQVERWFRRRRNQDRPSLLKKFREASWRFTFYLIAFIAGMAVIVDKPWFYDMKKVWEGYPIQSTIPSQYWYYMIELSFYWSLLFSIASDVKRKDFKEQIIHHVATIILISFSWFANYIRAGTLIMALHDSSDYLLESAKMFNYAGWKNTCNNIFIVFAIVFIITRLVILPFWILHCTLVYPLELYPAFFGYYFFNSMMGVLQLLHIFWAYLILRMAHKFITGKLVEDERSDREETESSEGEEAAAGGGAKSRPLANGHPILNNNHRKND
UniProt Q9NRR3: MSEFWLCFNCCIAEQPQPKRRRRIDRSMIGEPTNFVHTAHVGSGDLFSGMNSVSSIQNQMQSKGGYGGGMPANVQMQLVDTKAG
UniProt O00748: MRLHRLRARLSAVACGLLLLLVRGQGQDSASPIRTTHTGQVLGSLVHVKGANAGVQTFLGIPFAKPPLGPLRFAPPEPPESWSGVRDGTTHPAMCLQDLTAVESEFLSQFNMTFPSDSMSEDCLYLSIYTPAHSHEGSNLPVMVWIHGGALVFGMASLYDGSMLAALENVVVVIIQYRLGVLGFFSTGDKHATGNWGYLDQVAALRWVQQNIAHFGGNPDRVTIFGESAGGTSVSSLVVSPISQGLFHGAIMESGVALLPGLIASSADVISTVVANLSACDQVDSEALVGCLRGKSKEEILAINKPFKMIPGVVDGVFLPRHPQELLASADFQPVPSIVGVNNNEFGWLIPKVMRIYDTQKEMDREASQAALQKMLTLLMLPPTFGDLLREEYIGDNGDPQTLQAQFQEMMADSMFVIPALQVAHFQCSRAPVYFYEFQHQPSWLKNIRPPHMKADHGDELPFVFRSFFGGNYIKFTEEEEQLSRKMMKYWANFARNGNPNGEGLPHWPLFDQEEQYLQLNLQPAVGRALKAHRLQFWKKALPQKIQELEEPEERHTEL
UniProt Q14004, whole entry, looked up: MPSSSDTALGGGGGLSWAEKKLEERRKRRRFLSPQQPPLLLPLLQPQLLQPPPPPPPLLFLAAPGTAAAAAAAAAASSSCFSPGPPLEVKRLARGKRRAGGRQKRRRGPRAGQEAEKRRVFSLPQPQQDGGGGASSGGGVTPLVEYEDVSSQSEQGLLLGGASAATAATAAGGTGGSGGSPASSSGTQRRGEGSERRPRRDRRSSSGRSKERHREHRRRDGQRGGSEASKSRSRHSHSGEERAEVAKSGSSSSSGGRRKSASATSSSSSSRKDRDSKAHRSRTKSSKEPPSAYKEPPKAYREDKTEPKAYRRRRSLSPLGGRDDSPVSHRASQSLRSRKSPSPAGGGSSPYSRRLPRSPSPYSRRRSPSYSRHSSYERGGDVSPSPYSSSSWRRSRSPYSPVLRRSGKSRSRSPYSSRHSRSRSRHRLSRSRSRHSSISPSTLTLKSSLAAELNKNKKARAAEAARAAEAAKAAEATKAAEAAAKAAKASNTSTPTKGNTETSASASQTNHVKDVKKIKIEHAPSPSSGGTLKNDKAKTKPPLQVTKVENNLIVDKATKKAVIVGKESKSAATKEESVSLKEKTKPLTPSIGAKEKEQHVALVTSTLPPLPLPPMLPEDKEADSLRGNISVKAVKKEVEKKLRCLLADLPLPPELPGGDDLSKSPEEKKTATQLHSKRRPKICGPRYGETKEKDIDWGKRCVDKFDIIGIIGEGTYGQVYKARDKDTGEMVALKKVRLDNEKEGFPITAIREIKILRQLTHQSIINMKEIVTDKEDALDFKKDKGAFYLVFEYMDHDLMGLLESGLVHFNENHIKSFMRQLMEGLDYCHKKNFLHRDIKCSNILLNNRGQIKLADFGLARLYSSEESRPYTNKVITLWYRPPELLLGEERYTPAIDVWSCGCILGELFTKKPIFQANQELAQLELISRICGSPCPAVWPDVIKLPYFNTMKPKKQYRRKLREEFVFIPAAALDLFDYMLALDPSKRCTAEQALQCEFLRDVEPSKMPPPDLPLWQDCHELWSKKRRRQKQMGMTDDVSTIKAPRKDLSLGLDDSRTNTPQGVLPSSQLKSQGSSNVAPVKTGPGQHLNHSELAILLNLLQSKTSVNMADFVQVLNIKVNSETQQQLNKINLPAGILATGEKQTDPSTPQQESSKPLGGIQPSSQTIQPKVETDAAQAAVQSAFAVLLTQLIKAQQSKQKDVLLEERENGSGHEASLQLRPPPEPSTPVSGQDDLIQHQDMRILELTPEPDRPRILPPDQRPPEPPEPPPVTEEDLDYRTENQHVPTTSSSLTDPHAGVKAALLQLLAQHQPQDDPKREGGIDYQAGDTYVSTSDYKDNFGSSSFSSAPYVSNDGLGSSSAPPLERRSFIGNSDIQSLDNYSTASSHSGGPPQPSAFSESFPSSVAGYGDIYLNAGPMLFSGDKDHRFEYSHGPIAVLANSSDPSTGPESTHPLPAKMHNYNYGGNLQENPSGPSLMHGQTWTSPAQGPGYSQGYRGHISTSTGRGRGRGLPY
UniProt A8MTT3: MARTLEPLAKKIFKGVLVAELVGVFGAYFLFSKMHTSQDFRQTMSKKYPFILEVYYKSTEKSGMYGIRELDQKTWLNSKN

Tests used:
Assay in all cases: log2 fold change, soluble protein after heating vs DMSO (PISA); higher = thermal stabilisation; K562 lysate, 10 uM; active = over 0.2 and 3.5 SD of the protein, either way, in both replicates (recomputed)
[1] = compound: NCC(=O)Nc1ccc(-n2nc(C(F)(F)F)cc2-c2ccc3c(ccc4ccccc43)c2)cc1
Summary of the method: (§1)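 Thermal stability, expressed as log-two fold change relative to solvent controls, is given from duplicates. Crude K562 extract in PBS pH 7.4 with 1 mM MgCl2, at 1 mg/mL protein, was treated with 10 μM compound for 30 min and heated in aliquots for 3 min across 48°C-58°C. After pooling, adjustment to 0.5% NP-40 at 4°C and centrifugation at 21,000xg for 90 min, supernatant protein was measured by TMTpro 16plex LC-MS/MS with channel sums equalised.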

vorinostat = compound: O=C(CCCCCCC(=O)Nc1ccccc1)NO [vorinostat]
Summary of the method: as §1

silmitasertib = compound: O=C(O)c1ccc2c(c1)nc(Nc1cccc(Cl)c1)c1ccncc12 [silmitasertib]
Summary of the method: as §1

[2] = compound: O=C1NC(=O)C(c2cnc3ccccn23)=C1c1cn2c3c(cc(F)cc13)CN(C(=O)N1CCCCC1)CC2
Summary of the method: as §1

entospletinib = compound: c1cn2cc(-c3ccc4cn[nH]c4c3)nc(Nc3ccc(N4CCOCC4)cc3)c2n1 [entospletinib]
Summary of the method: as §1

Measured: log2 fold change

CDK5RAP1 (UniProt Q96SZ6)
inactive: [1] 0.011 | vorinostat 0.036 | silmitasertib -0.07 | [2] 0.016 | entospletinib 0.029

CFAP36 (UniProt Q96G28)
inactive: [1] 0.02 | vorinostat 0.042 | silmitasertib -0.075 | [2] -0.007 | entospletinib 0.009

CDKN1C (UniProt P49918)
inactive: [1] 0.124 | vorinostat 0.058 | silmitasertib -0.029 | [2] 0.134 | entospletinib 0.048

CDC73 (UniProt Q6P1J9)
inactive: [1] 0.037 | vorinostat -0.205 | silmitasertib -0.007 | [2] -0.026 | entospletinib -0.017

CDC37L1 (UniProt Q7L3B6)
inactive: [1] 0.012 | vorinostat -0.161 | silmitasertib 0.017 | [2] -0.039 | entospletinib 0.018

CENPJ (UniProt Q9HC77)
inactive: [1] -0.017 | vorinostat -0.161 | silmitasertib -0.01 | [2] -0.053 | entospletinib -0.009

CEP44 (UniProt Q9C0F1)
inactive: [1] -0.043 | vorinostat 0.001 | silmitasertib 0.003 | [2] 0.003 | entospletinib -0.024

CDK2AP1 (UniProt O14519)
inactive: [1] -0.012 | vorinostat 0.087 | silmitasertib -0.043 | [2] -0.023 | entospletinib 0.083

CDCP1 (UniProt Q9H5V8)
inactive: [1] 0.015 | vorinostat 0.049 | silmitasertib 0.018 | [2] 0.016 | entospletinib -0.029

CEP76 (UniProt Q8TAP6)
inactive: [1] -0.1 | vorinostat -0.055 | silmitasertib 0.027 | [2] -0.051 | entospletinib 0.039

CELF2 isoform 3 (UniProt O95319)
inactive: [1] 0.036 | vorinostat -0.028 | silmitasertib -0.012 | [2] -0.041 | entospletinib 0.033

CEFIP (UniProt Q711Q0)
inactive: [1] -0.16 | vorinostat -0.152 | silmitasertib 0.157 | [2] 0.052 | entospletinib -0.049

CFAP410 (UniProt O43822)
inactive: [1] 0.001 | vorinostat -0.147 | silmitasertib -0.081 | [2] -0.043 | entospletinib 0.068

CETN3 (UniProt O15182)
inactive: [1] 0.029 | vorinostat -0.022 | silmitasertib 0.041 | [2] -0.183 | entospletinib -0.048

CENPF (UniProt P49454)
inactive: [1] -0.002 | vorinostat -0.027 | silmitasertib -0.022 | [2] 0.01 | entospletinib -0.017

CDC42BPB (UniProt Q9Y5S2)
inactive: [1] 0.025 | vorinostat -0.125 | silmitasertib 0.044 | [2] 0.1 | entospletinib 0.044

CDCA2 (UniProt Q69YH5)
inactive: [1] 0.04 | vorinostat 0.1 | silmitasertib -0.055 | [2] 0.032 | entospletinib 0.012

CDYL (UniProt Q9Y232)
inactive: [1] 0.019 | vorinostat 0.022 | silmitasertib 0.012 | [2] 0.018 | entospletinib 0.022

CDCA3 (UniProt Q99618)
inactive: [1] 0.102 | vorinostat 0.136 | silmitasertib 0 | [2] -0.025 | entospletinib -0.039

CDCA5 (UniProt Q96FF9)
inactive: [1] 0.118 | vorinostat -0.194 | silmitasertib 0.011 | [2] -0.04 | entospletinib -0.03

CEP131 (UniProt Q9UPN4)
inactive: [1] 0.007 | vorinostat 0.1 | silmitasertib 0.016 | [2] 0.037 | entospletinib 0.065

CDK12 (UniProt Q9NYV4)
inactive: [1] 0.041 | vorinostat -0.065 | silmitasertib -0.04 | [2] 0.098 | entospletinib -0.04

CDC16 (UniProt Q13042)
active: vorinostat -0.265
inactive: [1] -0.068 | silmitasertib 0.023 | [2] -0.006 | entospletinib -0.015

CDAN1 (UniProt Q8IWY9)
active: vorinostat -0.326
inactive: [1] 0.019 | silmitasertib 0.05 | [2] 0.056 | entospletinib -0.006

CEP97 (UniProt Q8IW35)
inactive: [1] -0.056 | vorinostat -0.135 | silmitasertib 0.021 | [2] 0.007 | entospletinib 0

CDK5RAP3 isoform 4 (UniProt Q96JB5)
inactive: [1] 0.046 | vorinostat 0.026 | silmitasertib 0.068 | [2] 0 | entospletinib 0.012

CDC34 (UniProt P49427)
inactive: [1] 0.017 | vorinostat 0.01 | silmitasertib -0.047 | [2] 0.009 | entospletinib -0.02

CDK5 (UniProt Q00535)
inactive: [1] -0.036 | vorinostat -0.232 | [2] 0.179 | entospletinib 0.036
active: silmitasertib 0.855

CFAP20 (UniProt Q9Y6A4)
inactive: [1] -0.031 | vorinostat 0.074 | silmitasertib -0.006 | [2] 0.006 | entospletinib 0.019

CENPP (UniProt Q6IPU0)
inactive: [1] 0.034 | vorinostat 0.062 | silmitasertib 0.02 | [2] -0.015 | entospletinib 0.006

CDKN1B (UniProt P46527)
inactive: [1] 0.062 | vorinostat -0.011 | silmitasertib 0.048 | [2] -0.067 | entospletinib -0.028

CEP152 (UniProt O94986)
inactive: [1] 0.025 | vorinostat -0.167 | silmitasertib 0.039 | [2] 0.089 | entospletinib -0.04

CERS2 (UniProt Q96G23)
inactive: [1] 0.042 | vorinostat 0.062 | silmitasertib 0.006 | [2] -0.005 | entospletinib 0.029

CDC42SE2 (UniProt Q9NRR3)
inactive: [1] -0.112 | vorinostat 0.203 | silmitasertib -0.05 | [2] 0.029 | entospletinib 0.041

4 neighbouring records from above, quoted:
CDK5 (UniProt Q00535)
inactive: [1] -0.036 | vorinostat -0.232 | [2] 0.179 | entospletinib 0.036
active: silmitasertib 0.855

CFAP20 (UniProt Q9Y6A4)
inactive: [1] -0.031 | vorinostat 0.074 | silmitasertib -0.006 | [2] 0.006 | entospletinib 0.019

CENPP (UniProt Q6IPU0)
inactive: [1] 0.034 | vorinostat 0.062 | silmitasertib 0.02 | [2] -0.015 | entospletinib 0.006

CDKN1B (UniProt P46527)
inactive: [1] 0.062 | vorinostat -0.011 | silmitasertib 0.048 | [2] -0.067 | entospletinib -0.028

Next part:

CES2 isoform 4 (UniProt O00748)
inactive: [1] 0.049 | vorinostat 0.307 | silmitasertib -0.093 | [2] 0.177 | entospletinib -0.034

CDK13 (UniProt Q14004)
inactive: [1] -0.089 | vorinostat -0.088 | silmitasertib 0.093 | [2] -0.012 | entospletinib -0.013

CENPH (UniProt Q9H3R5)
inactive: [1] -0.045 | vorinostat 0.01 | silmitasertib 0.007 | [2] -0.034 | entospletinib 0.003

CENPS (UniProt Q8N2Z9)
inactive: [1] 0.059 | vorinostat 0.019 | silmitasertib 0.054 | [2] -0.001 | entospletinib 0.021

CDSN (UniProt Q15517)
inactive: [1] 0 | vorinostat 0.158 | silmitasertib -0.335 | [2] 0.302 | entospletinib -0.804

CEP41 (UniProt Q9BYV8)
inactive: [1] 0.002 | silmitasertib -0.026 | [2] -0.152 | entospletinib -0.017
active: vorinostat -0.558

CDC37 (UniProt K7EL68)
inactive: [1] 0.001 | [2] 0.005

CFLAR (UniProt O15519)
inactive: [1] 0.006 | [2] 0.001 | entospletinib 0.011

CHAC1 (UniProt Q9BUX1)
inactive: [1] -0.362 | [2] -0.084

CEBPZOS (UniProt A8MTT3)
inactive: [1] -0.113 | vorinostat 0.082 | silmitasertib -0.004 | [2] -0.025 | entospletinib -0.037

CD9 (UniProt P21926)
inactive: [1] -0.02 | entospletinib 0.12

CDC7 (UniProt O00311)
inactive: [1] 0.086 | vorinostat -0.152 | silmitasertib -0.077 | [2] -0.01 | entospletinib 0.007

CFL1 (UniProt P23528)
inactive: [1] -0.011 | vorinostat 0.059 | silmitasertib -0.01 | [2] -0.006 | entospletinib 0.02

CDKL5 (UniProt O76039)
inactive: [1] 0.037 | [2] 0.011 | entospletinib 0.017

CEP128 (UniProt Q6ZU80)
inactive: [1] 0.017 | entospletinib -0.081

CERS6 isoform 2 (UniProt Q6ZMG9)
inactive: [1] -0.018 | vorinostat -0.192 | silmitasertib -0.127 | [2] -0.008 | entospletinib 0.037

CERT isoform 3 (UniProt Q9Y5P4)
inactive: [1] -0.012 | vorinostat -0.002 | silmitasertib 0.01 | [2] -0.036 | entospletinib 0.015

CDK2 (UniProt P24941)
inactive: [1] -0.02 | vorinostat 0.006 | silmitasertib 0.248 | [2] 0.202 | entospletinib 0.039

CDC42EP2 (UniProt O14613)
inactive: [1] -0.139 | [2] -0.022

CDK9 isoform 2 (UniProt P50750)
inactive: [1] 0.081 | vorinostat -0.198 | silmitasertib 0.164 | [2] 0.402 | entospletinib 0.038

CENPQ (UniProt Q7L2Z9)
inactive: [1] -0.016 | vorinostat 0.061 | silmitasertib -0.014 | [2] 0.028 | entospletinib 0.047

CDK6 (UniProt Q00534)
inactive: [1] 0.012 | vorinostat 0.025 | silmitasertib 0.041 | [2] 0.114 | entospletinib -0.013
